# In all, about 360,000 compounds went through this assay and about 7,500 (2.1%) were called active. The shares of active, inactive and inconclusive entries below differ from those in the screen. Calls come from the whole dose curve; as a rule, active = well fitted inhibition curve with a large enough effect; inconclusive = small, poorly fitted or top-dose-only effect, or effect the other way; inactive = flat fitted curve, though single readings scatter. Potencies beside an inconclusive call are fits to weak or partial responses and may not hold up.
# Experiment: Nrf2 qHTS screen for inhibitors; note: nearly all actives have a fitted effect of over 60% in size
# Conditions: A549 ARE-Fluc reporter, luciferase luminescence, 18-24 h; activity change, negative = inhibition: at 46 µM (top of the series)
# Method in brief: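 Quantitative HTS in A549 cells stably bearing an antioxidant response element-firefly luciferase construct. Inhibition of Nrf2-driven transcription was scored by luminescence after 18-24 h of compound exposure at 37 °C.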
# % is set by controls: 0 for no effect and ±100 for the full control effect; potency is the fitted concentration of half-maximal effect.
Compound,Potency,"activity change, negative = inhibition"
CCCS(=O)(=O)N1CCC(CCOc2ccccc2)(C(=O)OCC)CC1,"inconclusive: 32.6 µM [falling, single point]",–
COc1ccccc1N1CCN(c2ncnc3c2nc2n3CCCC2)CC1,active: 20.6 µM,–
Cc1ccsc1/C=C1\CCC(C2CCCC2)C1=O (stereo not given),"inconclusive: 14.6 µM [activator, partial curve]",–
COc1cccc(CN2CCN(C(=O)c3ccco3)CC2)c1OC,–,inactive: 18.9%
COc1ccc(S(=O)(=O)N2CCN(c3ccccn3)CC2)cc1OC,"inconclusive: 1.84 µM [falling, partial curve]",–
O=c1[nH]c2ccccc2nc1CCc1ccccc1,"inconclusive: 20.6 µM [activator, single point]",–
O=C(CNC(=O)c1ccc(Cl)cc1)OCc1cc(=O)n2ccsc2n1,"inconclusive: 11.6 µM [activator, partial curve, poor fit]",–
CCOc1cc(C2C(C#N)=C(N)OC3=C2C(=O)CC(C)(C)C3)cc([N+](=O)[O-])c1O (stereo not given),–,inactive: -12.7%
CCCCn1c(Nc2ccccc2)nc2ccccc21,"inconclusive: 8.2 µM [falling, partial curve]",–
CCCC(c1nnnn1Cc1ccco1)N1CCN(c2cc(Cl)ccc2C)CC1 (stereo not given),"inconclusive: 35.5 µM [falling, single point]",–
CCOC(=O)c1[nH]c(C)c(C(=O)OCc2c(C)noc2C)c1C,"inconclusive: 18.4 µM [falling, single point]",–
Cc1cc2ncc(-c3cccc(Cl)c3)cn2n1,"inconclusive: 6.51 µM [activator, partial curve]",–
CCCCOc1ccc(C2OC34CCCCC3C(C#N)(C#N)C2(C#N)C(=N)O4)cc1 (stereo not given),–,inactive: -2.51%
Cc1ccc(Cl)cc1NC(=O)COCc1cc(-c2ccco2)on1,"inconclusive: 1.03 µM [activator, full curve, poor fit]",–
CCCC[n+]1ccn(-c2nc3ccccc3nc2[N-]S(=O)(=O)c2ccc(C)cc2)c1,–,inactive: 2.66%
Cc1nn(C)c(C)c1NC(=O)COc1ccc(Cl)cc1Br,active: 8.2 µM,–
CC(C)(C)c1ccc(C2NC(=O)c3n[nH]c(-c4cccs4)c32)cc1 (stereo not given),"inconclusive: 23.1 µM [falling, single point]",–
CCSc1nsc(NC(=O)Nc2ccccc2OC)n1,"inconclusive: 18.4 µM [falling, single point]",–
S=c1[nH]nc(-c2ccc(Cl)cc2)n1/N=C/c1cccs1,–,inactive: -0.515%
CCOc1ccc(OCCSc2nc(N)cc(=O)[nH]2)cc1,"inconclusive: 29.1 µM [falling, single point]",–

# Entries of single compounds from above.
# CCCS(=O)(=O)N1CCC(CCOc2ccccc2)(C(=O)OCC)CC1 in the list: Potency: inconclusive: 32.6 µM [falling, single point]
# CCCC(c1nnnn1Cc1ccco1)N1CCN(c2cc(Cl)ccc2C)CC1 (stereo not given) in the list: Potency: inconclusive: 35.5 µM [falling, single point]

# Reference: PubChem BioAssay AID504444 (National Center for Advancing Translational Sciences (NCATS), 2011)
